In PMC8190130:
These are yes or no findings as the source states them, for the method shown. Binding seen in cells or lysates may run through a third protein. Some entries that bind do so weakly or less than the wild type. Tags and fused reporters may be left off the sequences shown.

Sequences of proteins named here, by UniProt entry; tags and fusion partners are left off.
UniProt Q92783: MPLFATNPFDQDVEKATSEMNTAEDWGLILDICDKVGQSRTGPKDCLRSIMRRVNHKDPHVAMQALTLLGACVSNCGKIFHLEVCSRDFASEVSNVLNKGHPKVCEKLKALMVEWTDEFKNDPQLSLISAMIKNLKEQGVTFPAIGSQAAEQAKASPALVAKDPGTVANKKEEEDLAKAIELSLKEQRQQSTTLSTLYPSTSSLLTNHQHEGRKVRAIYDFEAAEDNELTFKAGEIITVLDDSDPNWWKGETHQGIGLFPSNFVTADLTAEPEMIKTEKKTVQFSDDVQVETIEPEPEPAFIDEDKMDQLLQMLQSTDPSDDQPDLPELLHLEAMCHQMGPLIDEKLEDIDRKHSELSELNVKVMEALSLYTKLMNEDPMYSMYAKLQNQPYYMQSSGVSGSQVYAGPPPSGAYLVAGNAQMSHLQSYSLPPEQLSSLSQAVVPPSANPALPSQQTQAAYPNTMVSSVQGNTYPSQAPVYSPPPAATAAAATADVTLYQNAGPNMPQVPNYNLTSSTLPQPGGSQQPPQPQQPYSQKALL

Biological target: T1, STAMBP (human) (UniProt O95630)
T1 sequence: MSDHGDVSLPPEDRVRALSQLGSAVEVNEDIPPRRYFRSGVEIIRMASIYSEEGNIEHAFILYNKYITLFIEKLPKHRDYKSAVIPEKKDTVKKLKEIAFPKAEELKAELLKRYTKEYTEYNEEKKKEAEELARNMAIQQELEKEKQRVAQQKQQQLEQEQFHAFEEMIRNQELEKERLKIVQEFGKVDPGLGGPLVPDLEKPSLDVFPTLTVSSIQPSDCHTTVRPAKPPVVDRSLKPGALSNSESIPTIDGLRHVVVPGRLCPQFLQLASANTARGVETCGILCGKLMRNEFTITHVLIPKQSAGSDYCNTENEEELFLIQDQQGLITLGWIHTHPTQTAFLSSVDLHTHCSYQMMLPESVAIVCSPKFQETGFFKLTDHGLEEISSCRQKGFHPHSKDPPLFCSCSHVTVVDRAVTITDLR
Experiment: co-IP; STAMBP complex from H1299 cells probed for STAM and EGFR; method and conditions only in Supplementary figure 6 (not shown)

Substance: STAM (from UniProt Q92783 1-540)
- binding: binds
